Data as given in PubChem BioAssay AID1259308 (NCATS, 2017).
This is a random part of about 59,000 deposited reagents. Of all reagents, about 1,510 (2.6%) got an active call. 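Calls use total luciferase alone and ignore viability, so some active siRNAs may act by altering cell number.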 A number with no mark means an inactive call.

- Test: 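Knock-downs that increase output of a recombinant reporter protein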 (primary screen)
- Cells: human HEK293 embryonic kidney cells stably expressing firefly luciferase (HEK-CMV-Luc2-Hygro)
- Knock-down reagent: single siRNA against human genes, 0.8 pmol siRNA per well
- Timing: 72 h
- Read-out: 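Reporter luminescence and viable-cell signal on separate replicate plates, given as percent of non-targeting control and median/MAD z-scores, plus per-cell luciferase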
- Reading the numbers: total luciferase, z-score and total luciferase, % of control: higher = more reporter protein produced; luciferase per cell, z-score: higher = more reporter output per viable cell; viable cells, % of control: higher = more viable cells
- Rule for the call: 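An siRNA counts as active if its total luciferase robust z-score exceeds 3; genes with two or more such siRNAs out of three were retested with fresh siRNAs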
- Calls: active = raised luciferase; inactive = no rise

no.	gene	PubChem SID	total luciferase, z-score	total luciferase, % of control	luciferase per cell, z-score	viable cells, % of control
1	ATP5ME (ATP synthase membrane subunit e)	SID160721978	0.872	99.2	0.932	86.8
2	ATP5ME (ATP synthase membrane subunit e)	SID160721987	-0.312	75.7	0.511	73.9
3	ATP5ME (ATP synthase membrane subunit e)	SID160721997	0.203	85.9	0.613	81.7
4	SCNN1B (sodium channel epithelial 1 subunit beta)	SID160716422	0.294	87.7	0.533	85.2
5	SCNN1B (sodium channel epithelial 1 subunit beta)	SID160716423	-0.066	80.6	-0.537	104
6	SCNN1B (sodium channel epithelial 1 subunit beta)	SID160716424	-1.7	48	-2.24	96.7
7	FAM110B (family with sequence similarity 110 member B)	SID160753668	-1.94	43.2	-0.853	60.5
8	FAM110B (family with sequence similarity 110 member B)	SID160753669	0.543	92.7	-0.346	113
9	FAM110B (family with sequence similarity 110 member B)	SID160753670	-1.76	46.8	-2.01	88.9
10	LCN15 (lipocalin 15)	SID160725241	-1.55	51.1	-0.536	65.8
11	LCN15 (lipocalin 15)	SID160725242	0.242	86.7	-0.282	104
12	LCN15 (lipocalin 15)	SID160766281	-0.436	73.2	-0.752	99.7
13	PSMC6 (proteasome 26S subunit, ATPase 6)	SID160715226	0.305	88	2.41	52.1
14	PSMC6 (proteasome 26S subunit, ATPase 6)	SID160715227	-0.51	71.7	3	36.4
15	PSMC6 (proteasome 26S subunit, ATPase 6)	SID160715228	-2.95	23.3	3.51	10.3
16	HRH2 (histamine receptor H2)	SID160775319	2.15	125	1.2	101
17	HRH2 (histamine receptor H2)	SID160775320	-0.282	76.3	-0.452	96
18	HRH2 (histamine receptor H2)	SID160775321	2.44	130	2.37	78.1
19	DEPP1 (DEPP autophagy regulator 1)	SID160729866	1.48	111	0.979	96.2
20	DEPP1 (DEPP autophagy regulator 1)	SID160729868	0.505	91.9	0.503	90
21	DEPP1 (DEPP autophagy regulator 1)	SID160729869	-0.96	62.8	-0.559	81.3
22	ACSM3 (acyl-CoA synthetase medium chain family member 3)	SID160716328	-0.364	74.6	-0.917	106
23	ACSM3 (acyl-CoA synthetase medium chain family member 3)	SID160716329	-0.22	77.5	-0.342	94.8
24	ACSM3 (acyl-CoA synthetase medium chain family member 3)	SID160716331	-0.657	68.8	-0.963	99.1
25	MAPK8 (mitogen-activated protein kinase 8)	SID160714992	-1.82	45.8	-2.25	92.4
26	MAPK8 (mitogen-activated protein kinase 8)	SID160714993	0.823	98.2	0.485	96.6
27	MAPK8 (mitogen-activated protein kinase 8)	SID160714994	0.761	97	0.156	104
28	GCK (glucokinase)	SID160769965	0.35	88.8	-0.0865	102
29	GCK (glucokinase)	SID160769976	1.25	107	0.707	99
30	GCK (glucokinase)	SID160769987	-0.214	77.6	-0.552	100
31	TMEM132E-DT (TMEM132E divergent transcript)	SID160766998	0.954	101	2.47	58.9
32	TMEM132E-DT (TMEM132E divergent transcript)	SID160766999	1.18	105	1.75	74.1
33	TMEM132E-DT (TMEM132E divergent transcript)	SID160767000	1.08	103	1.07	87.3
34	PUS10 (pseudouridine synthase 10)	SID160759038	1.1	104	0.282	108
35	PUS10 (pseudouridine synthase 10)	SID160759039	-0.393	74.1	-0.498	94.4
36	PUS10 (pseudouridine synthase 10)	SID160759040	0.974	101	0.652	95.3

Copied from above for reference:
no.	gene	PubChem SID	total luciferase, z-score	total luciferase, % of control	luciferase per cell, z-score	viable cells, % of control
5	SCNN1B (sodium channel epithelial 1 subunit beta)	SID160716423	-0.066	80.6	-0.537	104
6	SCNN1B (sodium channel epithelial 1 subunit beta)	SID160716424	-1.7	48	-2.24	96.7
7	FAM110B (family with sequence similarity 110 member B)	SID160753668	-1.94	43.2	-0.853	60.5
8	FAM110B (family with sequence similarity 110 member B)	SID160753669	0.543	92.7	-0.346	113
9	FAM110B (family with sequence similarity 110 member B)	SID160753670	-1.76	46.8	-2.01	88.9
10	LCN15 (lipocalin 15)	SID160725241	-1.55	51.1	-0.536	65.8
11	LCN15 (lipocalin 15)	SID160725242	0.242	86.7	-0.282	104
12	LCN15 (lipocalin 15)	SID160766281	-0.436	73.2	-0.752	99.7
13	PSMC6 (proteasome 26S subunit, ATPase 6)	SID160715226	0.305	88	2.41	52.1
14	PSMC6 (proteasome 26S subunit, ATPase 6)	SID160715227	-0.51	71.7	3	36.4

The results go on.
no.	gene	PubChem SID	total luciferase, z-score	total luciferase, % of control	luciferase per cell, z-score	viable cells, % of control
37	HDGFL2 (HDGF like 2)	SID160752646	-0.486	72.2	-0.116	83.2
38	HDGFL2 (HDGF like 2)	SID160752647	-0.936	63.3	-0.908	89.8
39	HDGFL2 (HDGF like 2)	SID160752648	-0.728	67.4	-0.37	83
40	ELOVL5 (ELOVL fatty acid elongase 5)	SID160747073	-0.528	71.4	-0.258	85.4
41	ELOVL5 (ELOVL fatty acid elongase 5)	SID160747074	3.12 (active)	144	2.98	73.3
42	ELOVL5 (ELOVL fatty acid elongase 5)	SID160747075	-0.349	74.9	-0.615	98.5
43	FNDC9 (fibronectin type III domain containing 9)	SID160733362	0.689	95.6	1.35	74.9
44	FNDC9 (fibronectin type III domain containing 9)	SID160767570	0.793	97.7	0.68	91.2
45	FNDC9 (fibronectin type III domain containing 9)	SID160767571	-0.675	68.5	0.655	64.4
46	RPL7P46 (ribosomal protein L7 pseudogene 46)	SID160768614	1.13	104	0.671	97.8
47	RPL7P46 (ribosomal protein L7 pseudogene 46)	SID160768615	0.543	92.7	0.683	86.5
48	RPL7P46 (ribosomal protein L7 pseudogene 46)	SID160768616	-0.643	69.1	0.0301	76.6
49	MIPEP (mitochondrial intermediate peptidase)	SID160731232	1.15	105	1.26	84.1
50	MIPEP (mitochondrial intermediate peptidase)	SID160777261	0.249	86.8	-0.416	108
51	MIPEP (mitochondrial intermediate peptidase)	SID160777262	-0.245	77	-0.2	90.7
52	GPX4 (glutathione peroxidase 4)	SID160773957	1.29	108	1.22	87.1
53	GPX4 (glutathione peroxidase 4)	SID160773967	1.67	115	1.56	85.2
54	GPX4 (glutathione peroxidase 4)	SID160773977	0.783	97.5	1.59	71.7
55	NFYA (nuclear transcription factor Y subunit alpha)	SID160778044	1.07	103	0.595	98.5
56	NFYA (nuclear transcription factor Y subunit alpha)	SID160778045	7.76 (active)	236	5.46	62.7
57	NFYA (nuclear transcription factor Y subunit alpha)	SID160778047	1.57	113	1.58	83.4
